The list shows a part of the results.
What was measured:
Assay in all cases: log2 fold change, soluble protein after heating vs DMSO (PISA); higher = thermal stabilisation; K562 cells, 10 uM, 30 min; active = over 0.2 and 3.5 SD of the protein, either way, in both replicates (recomputed)
[1] = compound: CN1CCN(c2nc(C3=C(c4c[nH]c5ccccc45)C(=O)NC3=O)c3ccccc3n2)CC1 [sotrastaurin]
Method in brief: (§1)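 Soluble protein was quantified by TMTpro 16plex LC-MS/MS after channel sums were equalised. It was obtained as the supernatant after 21,000xg for 90 min from pooled aliquots of K562 cells (2×10^6 cells/mL, 10 μM compound, 30 min) heated for 3 min across 48°C-58°C and extracted in PBS with 0.5% NP-40 at 4°C. Thermal stability values are relative to control samples and come from duplicates. They are given as log2 fold changes.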

Sequences of proteins named here, by UniProt entry; tags and fusion partners are left off. A change or cut given only in a name is not applied to a line headed by its entry.
UniProt P18850: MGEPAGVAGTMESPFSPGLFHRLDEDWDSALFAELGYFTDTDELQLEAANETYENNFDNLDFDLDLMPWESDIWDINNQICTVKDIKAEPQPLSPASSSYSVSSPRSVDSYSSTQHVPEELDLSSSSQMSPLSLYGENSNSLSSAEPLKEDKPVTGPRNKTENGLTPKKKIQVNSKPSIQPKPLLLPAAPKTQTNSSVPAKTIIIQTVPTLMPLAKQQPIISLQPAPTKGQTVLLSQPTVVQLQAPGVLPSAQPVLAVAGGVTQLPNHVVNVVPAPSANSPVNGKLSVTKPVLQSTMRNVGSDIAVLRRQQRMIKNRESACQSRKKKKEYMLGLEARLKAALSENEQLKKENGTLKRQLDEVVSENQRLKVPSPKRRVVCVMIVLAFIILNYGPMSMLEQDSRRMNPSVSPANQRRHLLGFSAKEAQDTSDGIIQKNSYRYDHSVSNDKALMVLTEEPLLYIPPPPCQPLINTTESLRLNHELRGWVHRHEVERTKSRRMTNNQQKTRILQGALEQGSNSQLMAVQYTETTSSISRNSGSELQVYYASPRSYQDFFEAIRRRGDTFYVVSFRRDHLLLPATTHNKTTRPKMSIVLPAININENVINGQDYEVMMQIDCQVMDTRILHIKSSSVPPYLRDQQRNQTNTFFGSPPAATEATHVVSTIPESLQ
UniProt P31939: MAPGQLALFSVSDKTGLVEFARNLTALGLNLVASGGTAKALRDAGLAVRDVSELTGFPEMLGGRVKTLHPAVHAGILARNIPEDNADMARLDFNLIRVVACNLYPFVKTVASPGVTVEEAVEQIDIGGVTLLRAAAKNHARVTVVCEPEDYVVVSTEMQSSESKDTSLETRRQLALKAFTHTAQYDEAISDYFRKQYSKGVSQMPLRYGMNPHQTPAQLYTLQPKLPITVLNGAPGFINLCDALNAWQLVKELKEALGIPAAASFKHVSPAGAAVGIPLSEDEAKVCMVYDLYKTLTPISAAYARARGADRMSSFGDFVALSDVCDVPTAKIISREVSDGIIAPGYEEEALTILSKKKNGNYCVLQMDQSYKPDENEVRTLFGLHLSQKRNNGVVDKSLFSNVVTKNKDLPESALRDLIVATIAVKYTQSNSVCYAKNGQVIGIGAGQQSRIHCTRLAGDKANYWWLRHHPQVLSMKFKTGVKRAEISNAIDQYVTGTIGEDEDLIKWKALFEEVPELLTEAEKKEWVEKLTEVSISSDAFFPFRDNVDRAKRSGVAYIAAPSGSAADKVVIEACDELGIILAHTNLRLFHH
UniProt Q9NVP2, whole entry, looked up: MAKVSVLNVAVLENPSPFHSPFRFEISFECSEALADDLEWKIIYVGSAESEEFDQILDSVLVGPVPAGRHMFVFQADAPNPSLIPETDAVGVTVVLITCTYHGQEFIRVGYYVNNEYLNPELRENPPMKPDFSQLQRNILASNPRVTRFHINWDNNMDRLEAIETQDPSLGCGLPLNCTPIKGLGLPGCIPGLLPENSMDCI
UniProt P18846: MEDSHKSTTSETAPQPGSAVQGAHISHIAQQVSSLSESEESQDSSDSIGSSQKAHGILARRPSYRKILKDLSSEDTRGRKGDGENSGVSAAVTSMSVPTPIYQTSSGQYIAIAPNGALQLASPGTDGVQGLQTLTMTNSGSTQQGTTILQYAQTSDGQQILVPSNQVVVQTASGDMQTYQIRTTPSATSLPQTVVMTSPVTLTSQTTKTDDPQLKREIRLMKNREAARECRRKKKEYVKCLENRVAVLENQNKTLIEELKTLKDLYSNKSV
UniProt Q6ZNE5, whole entry, looked up: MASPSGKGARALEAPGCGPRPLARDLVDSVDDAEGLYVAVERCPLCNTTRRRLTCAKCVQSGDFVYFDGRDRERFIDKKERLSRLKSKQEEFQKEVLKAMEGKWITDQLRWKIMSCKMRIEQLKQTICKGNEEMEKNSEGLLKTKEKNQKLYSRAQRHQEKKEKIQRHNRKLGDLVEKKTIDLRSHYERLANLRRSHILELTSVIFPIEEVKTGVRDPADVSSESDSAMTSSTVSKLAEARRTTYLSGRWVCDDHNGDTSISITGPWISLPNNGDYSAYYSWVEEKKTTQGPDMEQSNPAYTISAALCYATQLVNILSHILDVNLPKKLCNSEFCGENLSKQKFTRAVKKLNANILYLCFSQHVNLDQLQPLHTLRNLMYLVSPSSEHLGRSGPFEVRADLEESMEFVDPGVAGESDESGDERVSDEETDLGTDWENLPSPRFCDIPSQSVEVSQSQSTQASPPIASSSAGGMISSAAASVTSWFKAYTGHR
UniProt Q96KC2: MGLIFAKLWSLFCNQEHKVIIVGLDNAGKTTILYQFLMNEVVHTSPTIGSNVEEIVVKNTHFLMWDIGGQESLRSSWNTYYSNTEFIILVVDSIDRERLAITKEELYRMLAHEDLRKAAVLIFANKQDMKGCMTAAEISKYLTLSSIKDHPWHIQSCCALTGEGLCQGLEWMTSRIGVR
UniProt Q9Y2Y0: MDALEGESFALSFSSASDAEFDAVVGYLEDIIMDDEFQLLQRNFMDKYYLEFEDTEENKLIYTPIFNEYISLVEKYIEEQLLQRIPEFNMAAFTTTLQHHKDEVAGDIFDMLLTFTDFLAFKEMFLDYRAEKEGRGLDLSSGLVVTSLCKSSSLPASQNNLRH

[2] = compound: CC[C@@H]1C(=O)N(C)c2cnc(Nc3ccc(C(=O)NC4CCN(C)CC4)cc3OC)nc2N1C1CCCC1
Method in brief: as §1

[3] = compound: CC[C@@H]1C(=O)N(C)c2cnc(Nc3ccc(C(=O)N[C@H]4CC[C@H](N5CCN(CC6CC6)CC5)CC4)cc3OC)nc2N1C(C)C [volasertib]
Method in brief: as §1

[4] = compound: CC[C@H](C)N1C=C(C2=C(C=C(C=C21)C3=CN=C(C=C3)N4CCNCC4)C(=O)NCC5=C(C=C(NC5=O)C)C)C
Method in brief: as §1

[5] = compound: CC[C@H](C)[C@@H](C(=O)N[C@@H]([C@@H](C)O)C(=O)N[C@@H](CC(C)C)C(=O)[C@]1(CO1)C)NC(=O)[C@H]([C@@H](C)CC)N(C)C(=O)C [epoxomicin]
Method in brief: as §1

[6] = compound: CCn1cc(-c2ccnc3[nH]c(-c4cccc(CN(C)C)c4)cc23)c(-c2ccc(NC(=O)N(C)C)cc2)n1
Method in brief: as §1

[7] = compound: CN(C)CC(=O)Nc1ccc2[nH]c(=O)c3ccccc3c2c1
Method in brief: as §1

[8] = compound: CN1C2=C(C3=C1C(=O)N(N=C3)CC4=CC(=CC=C4)N)SC(=C2)S(=O)C
Method in brief: as §1

[9] = compound: CN1CCC(CNc2ccc3ncc(-c4cccc(OC(F)(F)F)c4)n3n2)CC1
Method in brief: as §1

[10] = compound: CN1CCN(CCOc2cc(OC3CCOCC3)c3c(Nc4c(Cl)ccc5c4OCO5)ncnc3c2)CC1 [saracatinib]
Method in brief: as §1

[11] = compound: CN1CCc2c(c3ccccc3n2Cc2ccc(C(=O)NO)cc2)C1 [Tubastatin A]
Method in brief: as §1

[12] = compound: CNC(=O)C1=CC=CC=C1NC2=NC(=NC=C2Cl)NC3=C(C=C(C=C3)N4CCOCC4)OC
Method in brief: as §1

[13] = compound: CNC(=O)c1ccc(Nc2ncc(C(F)(F)F)c(NCc3nccnc3N(C)S(C)(=O)=O)n2)cc1 [defactinib]
Method in brief: as §1

[14] = compound: CNCc1ccc(-c2[nH]c3cc(F)cc4c3c2CCNC4=O)cc1 [rucaparib]
Method in brief: as §1

[15] = compound: CNc1nc(-c2ccc3c(N)n[nH]c3c2)cc(N2C[C@@H](C(=O)NC3CCCCC3)CC[C@H]2C)n1
Method in brief: as §1

[16] = compound: COC(=O)N[C@@H](C)CNc1nccc(-c2cn(C(C)C)nc2-c2cc(Cl)cc(NS(C)(=O)=O)c2F)n1 [encorafenib]
Method in brief: as §1

[17] = compound: COC(=O)[C@H](CCSC)NC(=O)C1=C(C=C(C=C1)NC[C@H](CS)N)C2=CC=CC=C2
Method in brief: as §1

[18] = compound: CCn1c(C(=O)N(C2CC2)C2CC2)cc2c3c(ncn3C)c(Nc3cc(C)n(C)n3)nc21
Method in brief: as §1

[19] = compound: CN(CCOC1=CC=C(C=C1)C[C@H]2C(=O)NC(=O)S2)C3=CC=CC=N3 (racemic) [rosiglitazone]
Method in brief: as §1

[20] = compound: CN1CC[C@H](c2c(O)cc(O)c3c(=O)cc(-c4ccccc4Cl)oc23)[C@H](O)C1 [alvocidib]
Method in brief: as §1

Row | Target | log2 fold change [1] | log2 fold change [2] | log2 fold change [3] | log2 fold change [4] | log2 fold change [5] | log2 fold change [6] | log2 fold change [7] | log2 fold change [8] | log2 fold change [9] | log2 fold change [10] | log2 fold change [11] | log2 fold change [12] | log2 fold change [13] | log2 fold change [14] | log2 fold change [15] | log2 fold change [16] | log2 fold change [17] | log2 fold change [18] | log2 fold change [19] | log2 fold change [20]
1 | ATF6 (UniProt P18850) | inactive: 0.037 |  |  |  |  |  |  |  |  |  |  |  |  |  |  |  |  |  |  | 
2 | ATIC (UniProt P31939) | inactive: -0.001 | inactive: -0.032 | inactive: 0.021 | inactive: 0.029 | inactive: 0.04 | inactive: -0.016 | inactive: 0.023 | inactive: -0.123 | inactive: 0.029 | inactive: -0.013 | inactive: 0.008 | inactive: 0.087 | inactive: -0.059 | inactive: -0.05 | inactive: 0.044 | inactive: -0.011 | inactive: -0.028 |  |  | 
3 | ASF1B (UniProt Q9NVP2) | inactive: -0.375 |  | inactive: -0.269 | inactive: 0.147 | inactive: -0.058 | inactive: 0.081 | inactive: -0.011 | inactive: -0.013 | inactive: -0.088 | inactive: -0.143 | inactive: 0.085 | inactive: 0.003 | inactive: -0.15 |  | inactive: -0.036 |  | inactive: 0.05 | inactive: -0.007 | inactive: 0.048 | inactive: -0.03
4 | ATF1 (UniProt P18846) | inactive: -0.098 | inactive: 0 | inactive: 0.109 | inactive: -0.065 | inactive: 0.17 | inactive: 0.035 | inactive: 0.002 |  | inactive: -0.002 |  | inactive: -0.068 | inactive: -0.052 | inactive: 0.045 | inactive: -0.128 |  | inactive: -0.07 | inactive: 0.024 |  |  | 
5 | ATP5F1B (UniProt H0YI37) | inactive: 0.325 | inactive: 0.083 | inactive: 0.189 |  | inactive: -0.36 | inactive: 0.044 | inactive: 0.066 | inactive: 0.283 | inactive: -0.373 | inactive: -0.11 |  |  | inactive: 0.193 | inactive: 0.26 | inactive: -0.128 | inactive: -0.28 | inactive: -0.127 |  | inactive: 0.052 | 
6 | ATG14 (UniProt Q6ZNE5) | inactive: -0.015 | inactive: 0.102 | inactive: -0.017 |  |  |  |  |  |  |  |  | inactive: 0.032 |  | inactive: -0.236 |  | inactive: -0.247 |  | inactive: -0.04 | inactive: -0.223 | 
7 | ARL5B (UniProt Q96KC2) | inactive: -0.017 |  | inactive: -0.05 | inactive: 0.076 | inactive: -0.124 | inactive: 0.029 | inactive: 0.17 | inactive: -0.068 | inactive: 0.111 | inactive: 0.03 | inactive: 0 | inactive: 0 | inactive: -0.072 |  | inactive: -0.06 |  | inactive: -0.07 | inactive: 0.006 | inactive: 0.134 | inactive: -0.009
8 | ARL2BP (UniProt Q9Y2Y0) | inactive: -0.047 | inactive: -0.222 | active: -0.682 | inactive: 0.023 | inactive: -0.008 | inactive: -0.048 | inactive: 0.032 | inactive: -0.062 | inactive: -0.183 | inactive: 0.093 | inactive: 0.082 | inactive: 0.002 | inactive: -0.153 | inactive: 0.055 | inactive: 0.147 | inactive: -0.12 | inactive: -0.055 |  |  | 
